Test results as given in paper PMC8662705.

The chains behind the UniProt entries cited, without tags or fusion partners. Where a name states a change or a piece, a line headed by the entry shows the natural chain unless it says otherwise.
UniProt A0A6P6R941: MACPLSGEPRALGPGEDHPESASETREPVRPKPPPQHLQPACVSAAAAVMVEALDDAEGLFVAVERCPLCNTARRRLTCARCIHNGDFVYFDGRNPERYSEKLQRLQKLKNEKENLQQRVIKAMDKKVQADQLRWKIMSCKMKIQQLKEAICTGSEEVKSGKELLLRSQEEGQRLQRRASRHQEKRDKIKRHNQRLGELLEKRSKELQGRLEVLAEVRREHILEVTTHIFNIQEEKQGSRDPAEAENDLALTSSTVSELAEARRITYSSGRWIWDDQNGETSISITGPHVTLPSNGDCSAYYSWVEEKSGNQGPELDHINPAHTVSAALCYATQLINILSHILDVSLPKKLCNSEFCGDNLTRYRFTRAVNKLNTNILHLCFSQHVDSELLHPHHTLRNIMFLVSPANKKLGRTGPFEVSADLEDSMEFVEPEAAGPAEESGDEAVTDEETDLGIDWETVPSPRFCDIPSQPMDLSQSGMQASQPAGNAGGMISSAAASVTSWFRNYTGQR

Biological target: CaMITA-Myc (crucian carp (C. auratus))
Assay: co-IP; HEK 293T cells co-transfected (10 µg plasmids in all), 24 h; lysed in RIPA lysis buffer with protease inhibitors at 4°C; supernatant with anti-Flag or anti-Myc affinity gel overnight at 4°C; washed three times with lysis buffer; western blotting

CaATG14-HA (from UniProt A0A6P6R941)
binding: binds

Results are given in words; binding and its absence hold for the method and conditions named. In cells and extracts the contact can be indirect. A result given as binding can be weak or reduced; the word gives no strength.
